According to patent US20090269796A1, “METHODS OF DETECTING AND TREATING MYOCARDIAL ISCHEMIA AND MYOCARDIAL INFARCTION” (THE GENERAL HOSPITAL CORPORATION, priority 2007, published 2009):
Some results were stated once for a whole list of compounds, not compound by compound. For at least one compound, name, drawing or mass did not settle the structure.

Assay: Metabolite changes in peripheral plasma after planned MI (alcohol septal ablation), LC-MS/MS profiling
Type: in vivo, human
Conditions: transient versus persisting early changes, FIG. 3
Description: A total of 36 patients undergoing planned MI using alcohol septal ablation for the treatment of symptomatic hypertrophic obstructive cardiomyopathy (HOCM) were included. Inclusion criteria for the cohort were: 1) primary HOCM; 2) septal thickness of 16 mm or greater; 3) resting outflow tract gradient of greater than 30 mmHg, or an inducible outflow tract gradient of at least 50 mm Hg; 4) symptoms refractory to optimal medical therapy; and 5) appropriate coronary anatomy. The most proximal accessible septal branch was instrumented using standard angioplasty guiding catheters and guidewires and 1.5 or 2.0 mm×9 mm Maverick™ balloon catheters. Radiographic and echocardiographic contrast injections confirmed proper selection of the septal branch and balloon catheter position. Ethanol was infused through the balloon catheter at 1 ml per minute. Additional injections in the same or other septal branches were administered as needed, causing cessation of blood flow to the isolated myocardium, and to reduce the gradient to <20 mmHg.^16 […]
The three HPLC columns were connected in parallel via an automated switching valve on a robotic sample loader (Leap Technologies) to a triple quadrupole mass spectrometer (AB4000Q, Applied Biosystem/Sciex), operated in electrospray ionization mode using a turbo ion spray LC/MS interface. […] A total of 210 known metabolites were monitored for each sample. […]

In the case of `C[N+](C)(C)[O-]` [Trimethylamine-N-Oxide], the “Duration of metabolic change in peripheral plasma after planned MI” value is reported as at least 240 min.
